In PMC7819943, “Rice protein-binding microarrays: a tool to detect cis-acting elements near promoter regions in rice”:
Some of the results follow.

Sequences of proteins named here, by UniProt entry; tags and fusion partners are left off.
UniProt Q0JBA9, entry or part of it: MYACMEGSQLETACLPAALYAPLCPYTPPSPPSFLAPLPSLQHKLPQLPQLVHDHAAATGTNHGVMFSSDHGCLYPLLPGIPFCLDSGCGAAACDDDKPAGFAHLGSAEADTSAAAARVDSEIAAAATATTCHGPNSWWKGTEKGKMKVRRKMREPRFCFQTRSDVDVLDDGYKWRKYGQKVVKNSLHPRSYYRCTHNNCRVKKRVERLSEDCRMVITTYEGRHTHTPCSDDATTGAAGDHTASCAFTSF

Each sequence was assayed against OsWRKY34 (Oryza sativa, UniProt Q0JBA9 1-250) (assay: protein-binding microarray (RPBM); PBS, 2% BSA, 51.3 ng/ul salmon testes DNA, 50 uM zinc acetate, 200 nM TF, 25 C, 1 h; high values mean tight binding). Conditions: protein: recombinant; tags: N-terminal polyhistidine and DsRed monomer fusion (pET32a); label: CyDye5-dUTP incorporated in the synthesized complementary strand; 3' TTTTT single-stranded linker to array surface; dsDNA, one strand shown.
Summary of the method: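 The binding signal for each feature is its fluorescence intensity in arbitrary units. An Axon 4000B scanner was used to read a custom Agilent array that had been made double-stranded with Cy5-dUTP primer extension, blocked with 2% BSA, incubated at 25 °C for 1 h with 200 nM protein in PBS, 2% BSA, salmon testes DNA and 50 µM zinc acetate, and washed. The protein was an N-terminal polyhistidine–DsRed transcription factor fusion from E. coli BL21-CodonPlus, purified on Ni–NTA.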

**Q.** For “CAGATTTCCCAGGCCGTCTTGTTTTCCGTCAACACGCCTACGGAGTCACCTAGTGCAG”, which binding signal is on record?
**A.** 9910 fluorescence intensity (a.u.)

**Q.** With “GACGGGAAAGTCGACTTGCAATCCATCCATGCGGGAAGCTCGGAGTCACCTAGTGCAG” as the sequence, how does the binding signal read?
**A.** 8860 fluorescence intensity (a.u.)

**Q.** “GCACACTTCACCGCAACTCCGGCCGCCCGCCGCCGCCGCCCGGAGTCACCTAGTGCAG” was tested. Which binding signal did it give?
**A.** 11800 fluorescence intensity (a.u.)

**Q.** With “TCAATTGATTATTACTGCCGCTTACTGTCTCCTCTACTGCCGGAGTCACCTAGTGCAG” as the sequence, how does the binding signal read?
**A.** 9350 fluorescence intensity (a.u.)

**Q.** For “CAAGATGTTTTGTTTGGCTTTTCTGTTTTTAACAAGTTTACGGAGTCACCTAGTGCAG”, which binding signal is on record?
**A.** 8620 fluorescence intensity (a.u.)

**Q.** With “TTGTCATCCTCGCCACCTCATTCTTTCTTTCTTTCATCTCCGGAGTCACCTAGTGCAG” as the sequence, how does the binding signal read?
**A.** 12900 fluorescence intensity (a.u.)

**Q.** How did the binding signal turn out when “CTACGGTTTTTTTTCCACTTTTTAGGGTAGTCGGACTTTTCGGAGTCACCTAGTGCAG” was run?
**A.** 9140 fluorescence intensity (a.u.)

**Q.** Which binding signal does the source give for “CATCTTTTCCACTTGCTAATGTTGTCGCAACGATTTCTCTCGGAGTCACCTAGTGCAG” here?
**A.** 11900 fluorescence intensity (a.u.)

**Q.** “TTGACCAACGTTTAACCATTCGTTTCATTTAATTTTTTTTCGGAGTCACCTAGTGCAG” was tested. Which binding signal did it give?
**A.** 10800 fluorescence intensity (a.u.)

**Q.** For “GTTCGTACCTTACTGGAGTTAACTTTGTGCTTTAGGCTATCGGAGTCACCTAGTGCAG”, which binding signal is on record?
**A.** 9310 fluorescence intensity (a.u.)

**Q.** For “GGGCTTGGGCGGTGGTTAACGAGTTGGAAATAAGTCTACACGGAGTCACCTAGTGCAG”, which binding signal is on record?
**A.** 12800 fluorescence intensity (a.u.)

**Q.** “AAACTTCCCCGCGTACGATGACGCCAATACACATACATATCGGAGTCACCTAGTGCAG” was tested. Which binding signal did it give?
**A.** 10700 fluorescence intensity (a.u.)

**Q.** Which binding signal does the source give for “TCCCGATTTTTCTTTTACCGCGTTGATGAATCGGATTCGTCGGAGTCACCTAGTGCAG” here?
**A.** 8100 fluorescence intensity (a.u.)

**Q.** With “GTCGACTGTCCGCCGCTAGCGCCATCCACGCCGGTGCGCCCGGAGTCACCTAGTGCAG” as the sequence, how does the binding signal read?
**A.** 9890 fluorescence intensity (a.u.)

**Q.** Which binding signal does the source give for “GCGAGATACTACTATTTTGTGATGCTATGATACTTGCGTCCGGAGTCACCTAGTGCAG” here?
**A.** 8270 fluorescence intensity (a.u.)

**Q.** “ATGCTTATACCATTTTTTTTAAGAACTATGCACTTTGAGACGGAGTCACCTAGTGCAG” was tested. Which binding signal did it give?
**A.** 8090 fluorescence intensity (a.u.)

**Q.** With “TGGAAAGGTTCTTCTTCTTCGGGGTTGTTTGCTGCTGCTTCGGAGTCACCTAGTGCAG” as the sequence, how does the binding signal read?
**A.** 9160 fluorescence intensity (a.u.)

**Q.** With “AGAACTTTGGTAGAGTAGGCCCTGTATTGATTGGATTCGACGGAGTCACCTAGTGCAG” as the sequence, how does the binding signal read?
**A.** 8240 fluorescence intensity (a.u.)

**Q.** “CCGTCTCCTCGCGAGTTCACCCGCCACCTGCGCCGGTCTCCGGAGTCACCTAGTGCAG” was tested. Which binding signal did it give?
**A.** 10500 fluorescence intensity (a.u.)

**Q.** For “CAAAGTCCGACCCGTTCACACCATCACCATCACCATCACCCGGAGTCACCTAGTGCAG”, which binding signal is on record?
**A.** 8560 fluorescence intensity (a.u.)

**Q.** With “TTGAACTAGTTGTGTGCATTTTTTTACTCTGTCCATTATCCGGAGTCACCTAGTGCAG” as the sequence, how does the binding signal read?
**A.** 11000 fluorescence intensity (a.u.)

**Q.** With “AAGGTGGTGTTTGAGAGGGGAGGGACATATTTTAATCCATCGGAGTCACCTAGTGCAG” as the sequence, how does the binding signal read?
**A.** 10600 fluorescence intensity (a.u.)

**Q.** How did the binding signal turn out when “CGTGGGGCACTTTAAGTCAACGACATGTCTGCAAATCATCCGGAGTCACCTAGTGCAG” was run?
**A.** 8390 fluorescence intensity (a.u.)

**Q.** With “CCTCGTCCTCAACCGCCTCCGCCTCCGCCTCCGCGACCGACGGAGTCACCTAGTGCAG” as the sequence, how does the binding signal read?
**A.** 13000 fluorescence intensity (a.u.)

**Q.** How did the binding signal turn out when “CTCAACAAACCTTCCACATTGTTACCGTTTACAGATTTTCCGGAGTCACCTAGTGCAG” was run?
**A.** 8600 fluorescence intensity (a.u.)

**Q.** Which binding signal does the source give for “TTGACCCGGCGCGCGGCCCACGGAGCTCCGGCCTTTATTACGGAGTCACCTAGTGCAG” here?
**A.** 10200 fluorescence intensity (a.u.)

**Q.** With “TACTCACATGTCCATCCTACATCCCAGGTTCTTCTTTGAGCGGAGTCACCTAGTGCAG” as the sequence, how does the binding signal read?
**A.** 11700 fluorescence intensity (a.u.)

**Q.** For “GTTTGGTCGCCTTTATCAAAAGACACACACGCTGCCTCTCCGGAGTCACCTAGTGCAG”, which binding signal is on record?
**A.** 8030 fluorescence intensity (a.u.)

**Q.** How did the binding signal turn out when “CTTAACCTCCTTTATTTGGAAACATGTACCTTCGTTTTCTCGGAGTCACCTAGTGCAG” was run?
**A.** 8440 fluorescence intensity (a.u.)

**Q.** Which binding signal does the source give for “GATGACATCCGCTCGGCTTTCTACATCCATCGTTCCGACACGGAGTCACCTAGTGCAG” here?
**A.** 8080 fluorescence intensity (a.u.)

**Q.** “AGTTTTTTTTTTCTTCACTGTCGACCATGCATGCGTTGATCGGAGTCACCTAGTGCAG” was tested. Which binding signal did it give?
**A.** 9750 fluorescence intensity (a.u.)

**Q.** How did the binding signal turn out when “AAATTCCACGTGCCACATATTTCGTTCATTTGAGTTTATTCGGAGTCACCTAGTGCAG” was run?
**A.** 12000 fluorescence intensity (a.u.)

**Q.** With “TTTTATAAATTCGAGCGTGTGCGGGTTTCGTTTTCTCACTCGGAGTCACCTAGTGCAG” as the sequence, how does the binding signal read?
**A.** 9840 fluorescence intensity (a.u.)

**Q.** How did the binding signal turn out when “TCTTTTCTCATAAAGATAATGATTTTACCTCAGTTTCCGTCGGAGTCACCTAGTGCAG” was run?
**A.** 9380 fluorescence intensity (a.u.)

**Q.** With “AAACTCATTATCTCACATACAAGTCAAACATGGCTGTAATCGGAGTCACCTAGTGCAG” as the sequence, how does the binding signal read?
**A.** 9490 fluorescence intensity (a.u.)

**Q.** With “GAAACATACTTCCATTCCATGGAGATTACAGGCCTGAATACGGAGTCACCTAGTGCAG” as the sequence, how does the binding signal read?
**A.** 8230 fluorescence intensity (a.u.)

**Q.** How did the binding signal turn out when “TGTTATATGAGTATGTTTTCGCCGGGTGTTTTATGAGTATCGGAGTCACCTAGTGCAG” was run?
**A.** 12000 fluorescence intensity (a.u.)

**Q.** For “CTTGGATTAAGGCGATACCTCTTTTTCTAATTTTTGCACTCGGAGTCACCTAGTGCAG”, which binding signal is on record?
**A.** 9470 fluorescence intensity (a.u.)

**Q.** For “GCACACTCTGGCCGGTCGTCAGTTCAACCACCCGCCAACTCGGAGTCACCTAGTGCAG”, which binding signal is on record?
**A.** 8040 fluorescence intensity (a.u.)

**Q.** With “ATATTCTGTTGCTCCTCGTGTTATCTCTGATTTTTTTCTTCGGAGTCACCTAGTGCAG” as the sequence, how does the binding signal read?
**A.** 15100 fluorescence intensity (a.u.)

**Q.** “GGTTTTGGACCTTTTTTTGTGCCAACCTTGCAATCTTCAACGGAGTCACCTAGTGCAG” was tested. Which binding signal did it give?
**A.** 8720 fluorescence intensity (a.u.)

**Q.** With “AAAATGGATGTTATATGAATGTGGTTGTATTAAATATATTCGGAGTCACCTAGTGCAG” as the sequence, how does the binding signal read?
**A.** 8660 fluorescence intensity (a.u.)

**Q.** “CCTCCCCACTCCGTCTCCGTGGCTCCGTGCCTTCCAAAGCCGGAGTCACCTAGTGCAG” was tested. Which binding signal did it give?
**A.** 8490 fluorescence intensity (a.u.)

**Q.** With “CGTCCCCGCAGCCCGCAGCGTAGGTCTCGTTTTTCTTGTCCGGAGTCACCTAGTGCAG” as the sequence, how does the binding signal read?
**A.** 8210 fluorescence intensity (a.u.)

**Q.** “ATCAATTTATCACCCGCTGACTCATCTTTATTGTATCTGCCGGAGTCACCTAGTGCAG” was tested. Which binding signal did it give?
**A.** 8420 fluorescence intensity (a.u.)

**Q.** How did the binding signal turn out when “CTTGGACACTATATATATCCCTCCATACCAGAGCCATAACCGGAGTCACCTAGTGCAG” was run?
**A.** 8140 fluorescence intensity (a.u.)

**Q.** Which binding signal does the source give for “AATTAAATTTTTTTTCTTCTACTGCATTGCTTCAACCACTCGGAGTCACCTAGTGCAG” here?
**A.** 8710 fluorescence intensity (a.u.)

**Q.** Which binding signal does the source give for “AAAGTCCAACCGTGTAGCCCACTTTTTCCTCCATTTCTCACGGAGTCACCTAGTGCAG” here?
**A.** 9560 fluorescence intensity (a.u.)

**Q.** “CCAACTGATTTCTTCAAGAGCACACATCCAAACAGCGTTCCGGAGTCACCTAGTGCAG” was tested. Which binding signal did it give?
**A.** 8530 fluorescence intensity (a.u.)

**Q.** “ATCTCCACCACGTTTTCCGCACACATAATTTTCAAACTGCCGGAGTCACCTAGTGCAG” was tested. Which binding signal did it give?
**A.** 9790 fluorescence intensity (a.u.)

**Q.** “TTCTATTTTCGTGACAACATTAATATTAAATCTACAGTTTCGGAGTCACCTAGTGCAG” was tested. Which binding signal did it give?
**A.** 8730 fluorescence intensity (a.u.)

**Q.** Which binding signal does the source give for “CCCGCGTCCTCTTCCCTTTCCAGCCAAACCGACGCCGATGCGGAGTCACCTAGTGCAG” here?
**A.** 8150 fluorescence intensity (a.u.)

**Q.** With “AAGGGTGTATTTATTGGTGCAATAGCGTTTTTGTTTGACCCGGAGTCACCTAGTGCAG” as the sequence, how does the binding signal read?
**A.** 8690 fluorescence intensity (a.u.)

**Q.** For “AACACTTCCATTAATTCTTGATCGTTTTCTGTCCGCTTTGCGGAGTCACCTAGTGCAG”, which binding signal is on record?
**A.** 9600 fluorescence intensity (a.u.)
